Data on three molecules can be found in article PMC10036488.

This assay addresses T1, CASP1-sGFP-TurboID (pCASP1::CASP1-sGFP-TurboID) (Arabidopsis thaliana) (UniProt Q9SIH4).
T1 sequence: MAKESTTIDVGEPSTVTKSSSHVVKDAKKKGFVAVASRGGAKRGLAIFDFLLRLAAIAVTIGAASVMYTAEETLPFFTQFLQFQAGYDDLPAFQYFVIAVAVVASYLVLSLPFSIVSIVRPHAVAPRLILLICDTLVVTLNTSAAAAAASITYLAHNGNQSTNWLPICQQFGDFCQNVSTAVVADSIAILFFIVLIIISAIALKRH
Kind of assay: proximity labelling; TurboID fused to CASP1 (pCASP1::CASP1-sGFP-TurboID) in Arabidopsis roots; 50 µM biotin for 24 h at 28 °C; RIPA extract, streptavidin beads, LC-MS/MS, three biological replicates; compared with cyto-tID, PM-tID and CASP1-GFP controls.

These are yes or no findings as the source states them, for the method shown. Binding seen in cells or lysates may run through a third protein. A yes stands for co-enrichment or nearness to the bait. Other partners may have been found. Sequences can lack the tags named with a protein.

B1: CASP4 (protein, UniProt Q9FFZ7 1-202)
chain: MKSDSIAVDVPAESSSVIKGKAPLLGLARDHTGSGGYKRGLSIFDFLLRLAAIVAALAAAATMGTSDETLPFFTQFLQFEASYDDLPTFQFFVVAIAIVAGYLVLSLPFSVVTIVRPLAVAPRLLLLVLDTAALALDTAAASAAAAIVYLAHNGNTNTNWLPICQQFGDFCQKTSGAVVSAFASVTFLAILVVISGVSLKRP
As to B1, the binding entry is “binds”.

B2: CASP2 (protein, UniProt Q9CAX3 1-204)
chain: MKNESTFIDVPAESSSAMKGKAPLIGVARDHTTSGSGGYNRGLAIFDFLLRLAAIVAALAAAATMGTSDETLPFFTQFLQFEASYDDLPTFQFFVIAMALVGGYLVLSLPISVVTILRPLATAPRLLLLVLDTGVLALNTAAASSAAAISYLAHSGNQNTNWLPICQQFGDFCQKSSGAVVSAFVSVVFFTILVVISGVALKRH
Consider B2, for which the binding entry is listed as “binds”.

B3: CASP3 (protein, UniProt Q9ZQI2 1-221)
chain: MDIEKAGSRREEEEPIVQRPKLDKGKGKAHVFAPPMNYNRIMDKHKQEKMSPAGWKRGVAIFDFVLRLIAAITAMAAAAKMATTEETLPFFTQFLQFQADYTDLPTMSSFVIVNSIVGGYLTLSLPFSIVCILRPLAVPPRLFLILCDTVMMGLTLMAASASAAIVYLAHNGNSSSNWLPVCQQFGDFCQGTSGAVVASFIAATLLMFLVILSAFALKRTT
Consider B3, for which the binding result is given as “binds”.
